Laboratory results from the supplement of paper PMC8975748.
Counter-ions that a name gives are not always drawn. ± gives the standard deviation of the averaged measurements. The list shows a part of the results. These are raw signals, not scaled to a control.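 One yeast strain harboring four plasmids, each bearing a fluorescent protein plus an amino-acid or uracil synthesis gene, founds the community. Random loss of plasmids produces mixed prototroph and auxotroph subpopulations. Cells were fixed, then counted with automated confocal fluorescence imaging, with DMSO-treated wells as vehicle reference.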

What follows are molecules tested on Saccharomyces cerevisiae BY4741 SeMeCo community (assay: imaged cell count per well (cells); higher = more cells). Settings: 10 µM; 24 h; SM minimal medium.
Description: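 Same SeMeCo high-content imaging drug screen: Selleck FDA-approved drugs at 10 µM, 24 h in SM medium, 384-well plates, 3 replicates.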

Compound	imaged cell count per well
O=C(O)CCC(=O)Nc1ccc(S(=O)(=O)Nc2nccs2)cc1 [Succinylsulfathiazole]	25300 ± 5300
COc1ccc(Cc2cnc(N)nc2N)cc1OC [Diaveridine]	24500 ± 5800
N#Cc1ccc(Oc2ccc3c(c2)COB3O)cc1 [Crisaborole (AN2728)]	17200 ± 3500
C[C@H]1COc2c(N3CCN(C)CC3)c(F)cc3c(=O)c(C(=O)O)cn1c23 [Levofloxacin hydrate]	20300 ± 6900
N=C(N)NS(=O)(=O)c1ccc(N)cc1 [Sulfaguanidine]	27800 ± 5600
Cc1nccn1CC1CCc2c(c3ccccc3n2C)C1=O (stereo not given) [Ondansetron Hydrochloride Dihydrate]	27600 ± 8800
Nc1ccc(S(=O)(=O)NC(=O)c2ccccc2)cc1 [Sulfabenzamide]	21000 ± 9800
CN1CCN(CC(=O)N2c3ccccc3C(=O)Nc3cccnc32)CC1 [Pirenzepine dihydrochloride]	28300 ± 1700
O=C(O)C1=C(CSc2nnnn2CS(=O)(=O)O)CS[C@@H]2[C@H](NC(=O)[C@H](O)c3ccccc3)C(=O)N12 [Cefonicid sodium]	25700 ± 4700
COC(=O)Nc1nc2cc([S+]([O-])c3ccccc3)ccc2[nH]1 (stereo not given) [Oxfendazole]	20500 ± 6100
C[C@]1(COc2ccc(N3CCC(Oc4ccc(OC(F)(F)F)cc4)CC3)cc2)Cn2cc([N+](=O)[O-])nc2O1 [Delamanid]	29700 ± 3100
CCOC(=O)c1ccc(N)cc1 [Benzocaine hydrochloride]	24600 ± 2500
COc1cc(N)c(Cl)cc1C(=O)NC1CCN(CCCOc2ccc(F)cc2)CC1OC (stereo not given) [Cisapride hydrate]	20900 ± 5600
Nc1nc(/C(=C/CC(=O)O)C(=O)N[C@@H]2C(=O)N3C(C(=O)O)=CCS[C@H]23)cs1 [Ceftibuten dihydrate]	17400 ± 5300
Clc1ccc(CCC(Cn2ccnc2)Sc2c(Cl)cccc2Cl)cc1 (stereo not given) [Butoconazole]	3100 ± 630
OCCN1CCN(CCCN2c3ccccc3Sc3ccc(C(F)(F)F)cc32)CC1 [Fluphenazine dihydrochloride]	20800 ± 5500
OCCN1CCN(CCCN2c3ccccc3Sc3ccc(Cl)cc32)CC1 [Perphenazine]	25800 ± 5600
C=CC[C@@H]1/C=C(\C)C[C@H](C)C[C@H](OC)[C@H]2O[C@@](O)(C(=O)C(=O)N3CCCC[C@H]3C(=O)O[C@H](/C(C)=C/[C@@H]3CC[C@@H](O)[C@H](OC)C3)[C@H](C)[C@@H](O)CC1=O)[C@H](C)C[C@@H]2OC [Tacrolimus (FK506)]	23400 ± 4900
O=C(O)CCc1nc(-c2ccccc2)c(-c2ccccc2)o1 [Oxaprozin]	21700 ± 7500
OC[C@H]1O[C@H](OCC2O[C@@H](O)[C@H](O)[C@@H](O)[C@@H]2O)[C@H](O)[C@@H](O)[C@H]1O (stereo not given in full) [Melibiose]	19200 ± 7900
CNCCCN1c2ccccc2CCc2ccccc21 [Desipramine Hydrochloride]	29000 ± 2600
O=C(CCCN1CC=C(n2c(=O)[nH]c3ccccc32)CC1)c1ccc(F)cc1 [Droperidol]	16900 ± 8200
CN(C)c1ccc(O)c2c1C[C@H]1C[C@H]3[C@H](N(C)C)C(O)=C(C(N)=O)C(=O)[C@@]3(O)C(O)=C1C2=O [Minocycline HCl]	18300 ± 6400
CC[C@H]1OC(=O)[C@H](C)[C@@H](O[C@H]2C[C@@](C)(OC)[C@@H](O)[C@H](C)O2)[C@H](C)[C@@H](O[C@@H]2O[C@H](C)C[C@H](N(C)C)[C@H]2O)[C@](C)(O)C[C@@H](C)C(=O)[C@H](C)[C@@H](O)[C@]1(C)O [Erythromycin thiocyanate]	30300 ± 2300
CC(C)c1c(C(=O)Nc2ccccc2)c(-c2ccccc2)c(-c2ccc(F)cc2)n1CC[C@@H](O)C[C@@H](O)CC(=O)O [Atorvastatin]	17400 ± 1100
O=C1CN(/N=C/c2ccc(-c3ccc([N+](=O)[O-])cc3)o2)C(=O)N1 [Dantrolene sodium hemiheptahydrate]	17600 ± 8200
CC1=C(C(=O)O)N2C(=O)[C@@H](NC(=O)[C@H](N)C3=CCC=CC3)[C@H]2SC1 [Cephradine monohydrate]	23800 ± 4100
c1ccc(-c2ccc(C(c3ccccc3)n3ccnc3)cc2)cc1 (stereo not given) [Bifonazole]	16900 ± 3000
Cc1onc(-c2ccccc2)c1-c1ccc(S(N)(=O)=O)cc1 [Valdecoxib]	30500 ± 3200
CC[C@H]1OC(=O)[C@H](C)[C@@H](O[C@H]2C[C@@](C)(OC)[C@@H](O)[C@H](C)O2)[C@H](C)[C@@H](O[C@@H]2O[C@H](C)C[C@H](N(C)C)[C@H]2O)[C@](C)(O)C[C@@H](C)CN(C)[C@H](C)[C@@H](O)[C@]1(C)O [Azithromycin Dihydrate]	22800 ± 7700

Filtered by structure, those above containing an aryl methoxy group
Compound	imaged cell count per well
COc1ccc(Cc2cnc(N)nc2N)cc1OC [Diaveridine]	24500 ± 5800
COc1cc(N)c(Cl)cc1C(=O)NC1CCN(CCCOc2ccc(F)cc2)CC1OC (stereo not given) [Cisapride hydrate]	20900 ± 5600
